In PubChem BioAssay AID1487 (National Center for Advancing Translational Sciences (NCATS), 2009):
“And” between values parts separate entries of the source, which are not always exact repeats. Equal entries are not always repeated. The list shows a part of the results. Shown are side measurements of this screen, not its main read-out; they come without a call. Compounds called inactive in the main read-out are mostly missing here. Words in brackets tell the shape of the fitted curve; partial curves, single points and poor fits give uncertain potencies.

Experiment: qHTS Assay for Modulators of Lamin A Splicing
Settings: HeLa LMNA splicing GFP/RFP minigene ratio, 48 h
How it was run: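 Read-out is the ratio of GFP to DsRed2 object intensity, acquired by 488 nm laser-scanning cytometry on HeLa lamin A-EGFP minigene reporter cells. Compound incubation 48 hrs at 37 °C in Opti-MEM with 2% FBS; DMSO 0.5% final.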

[1] = measured here: RFP viability control channel
[2] = measured here: GFP splicing reporter channel

Structure (SMILES) | AC50 [1] | AC50 [2]
COc1ccc(Cn2nnnc2C(c2cccs2)N2CCSCC2)cc1 (stereo not given) | 31.6 µM [rising, single point] | 
CCOC(=O)Cc1csc(NC(=O)CCN2C(=O)c3ccccc3C2=O)n1 | 35.5 µM [rising, single point] | 
O=C(NCC1CCCO1)C(c1cccs1)N(Cc1cccs1)C(=O)c1ccc(-c2ccccc2)[nH]1 (stereo not given) | 35.5 µM [rising, single point] | 22.4 µM [rising, single point]
COc1ccc(CCN(Cc2cc3cc(C)c(C)cc3nc2Cl)C(=O)C2CC2)cc1 | 5.62 µM [rising, single point] | 
C[C@]12CC[C@@H]3c4ccc(O)cc4CC[C@H]3[C@@H]1CC[C@@H]2O | 4.47 µM [rising, single point] and 12.6 µM [falling, partial curve] and 6.31 µM [falling, partial curve, poor fit] | 3.16 µM [rising, full curve] and 3.98 µM [falling, full curve, poor fit] and 3.16 µM [rising, single point]
COC(=O)c1sc(N)c(C(=O)OC)c1CSc1nnc(-c2ccccc2Cl)n1C | 2.51 µM [rising, partial curve, poor fit] | 
CC1CCCCN1C(=O)CSc1nc2ccccc2nc1Cc1ccc(Cl)cc1 (stereo not given) | 35.5 µM [rising, single point] | 
CCN(CC)S(=O)(=O)c1ccc(NCC2COc3ccccc3O2)c([N+](=O)[O-])c1 (stereo not given) | 14.1 µM [rising, single point] | 
Clc1ccc2c(c1)C(C1=NCCN1)c1ccccc1CS2 (stereo not given) | 0.631 µM [rising, full curve, poor fit] | 
CC(OC(=O)Cc1coc2ccc3ccccc3c12)C(=O)Nc1ncc(Cl)cc1Cl (stereo not given) | 2.24 µM [rising, partial curve, poor fit] | 
O=C(CC1S/C(=N/N=C/c2ccco2)NC1=O)Nc1ccccc1 (stereo not given) |  | 0.794 µM [rising, single point]
CCOc1cccc(CNCCO)c1OCc1ccc(Cl)cc1Cl | 7.94 µM [rising, partial curve, poor fit] | 
CC(C(=O)Nc1ccccc1Oc1ccccc1)c1ccccc1 (stereo not given) | 2.24 µM [rising, full curve, poor fit] | 
COc1ccc(-c2cc(C(=O)N3CCN(c4ccccc4)CC3)c3ccccc3n2)cc1 | 10 µM [rising, partial curve, poor fit] | 
CC(=O)Nc1ccc(S(=O)(=O)NCCSCc2ccccc2Cl)cc1 | 8.91 µM [rising, partial curve] | 7.08 µM [rising, partial curve, poor fit]
O=C(c1ccccc1F)N1CCN(c2ccc([N+](=O)[O-])c3cccnc23)CC1 | 7.08 µM [falling, full curve, poor fit] | 10 µM [falling, partial curve, poor fit]
Cc1ccc(C(C)C)c(OCC(=O)Nc2nc3c(s2)CCCC3)c1 | 5.62 µM [rising, single point] | 
CCCNNC(=O)C(O)(c1ccccc1)c1ccccc1 | 0.0708 µM [rising, partial curve, poor fit] | 

Sorted by number of heavy atoms (ascending): seven of the compounds above
Structure (SMILES) | AC50 [1] | AC50 [2]
Clc1ccc2c(c1)C(C1=NCCN1)c1ccccc1CS2 (stereo not given) | 0.631 µM [rising, full curve, poor fit] | 
O=C(CC1S/C(=N/N=C/c2ccco2)NC1=O)Nc1ccccc1 (stereo not given) |  | 0.794 µM [rising, single point]
CC(=O)Nc1ccc(S(=O)(=O)NCCSCc2ccccc2Cl)cc1 | 8.91 µM [rising, partial curve] | 7.08 µM [rising, partial curve, poor fit]
COc1ccc(Cn2nnnc2C(c2cccs2)N2CCSCC2)cc1 (stereo not given) | 31.6 µM [rising, single point] | 
CCN(CC)S(=O)(=O)c1ccc(NCC2COc3ccccc3O2)c([N+](=O)[O-])c1 (stereo not given) | 14.1 µM [rising, single point] | 
CC(OC(=O)Cc1coc2ccc3ccccc3c12)C(=O)Nc1ncc(Cl)cc1Cl (stereo not given) | 2.24 µM [rising, partial curve, poor fit] | 
COc1ccc(-c2cc(C(=O)N3CCN(c4ccccc4)CC3)c3ccccc3n2)cc1 | 10 µM [rising, partial curve, poor fit] | 

(list continues)

Structure (SMILES) | AC50 [1] | AC50 [2]
CC(C)c1ccc(NC(=S)NCc2cccs2)cc1 | 35.5 µM [rising, single point] | 
COc1ccc(-n2cc(C(=O)NCc3ccc(Cl)cc3)c3ccccc3c2=O)cc1 | 2.82 µM [rising, full curve] | 4.47 µM [rising, partial curve, poor fit]
CCC(=O)Nc1cccc(-n2nnnc2SCC(=O)c2ccc(C)c(C)c2)c1 | 14.1 µM [rising, partial curve, poor fit] | 
CCOC(=O)c1ccc(Nc2nc(C(=O)OCC)nc3ccccc23)cc1 |  | 22.4 µM [falling, single point]
Cc1cc(C)c(S(=O)(=O)NCC(c2ccc(N(C)C)cc2)N2CCc3ccccc32)c(C)c1 (stereo not given) | 35.5 µM [rising, partial curve, poor fit] | 
COc1cccc(OC)c1C(=O)Nc1nc2ccc([N+](=O)[O-])cc2s1 | 28.2 µM [falling, partial curve, poor fit] | 
CCCOc1ccccc1C1CC(=O)Nc2cc3c(cc21)OCCO3 (stereo not given) | 3.16 µM [rising, full curve] | 
COc1cccc(Cn2c(=O)c(-c3ccccc3)nc3cnc(N4CCNCC4)nc32)c1 |  | 10 µM [falling, partial curve]
CCCn1c(O)c(/C=C2\C=NN=C2c2ccccc2)sc1=S | 15.8 µM [falling, single point] | 35.5 µM [falling, single point]
COC(=O)CNC(c1ccccc1)c1cc(C)ccc1NC(=O)c1cccc(Cl)c1 (stereo not given) |  | 1 µM [rising, partial curve]
Cc1cc(OCC(=O)Nc2ccncc2)cc(C)c1Br | 5.62 µM [rising, full curve] | 11.2 µM [rising, partial curve, poor fit]
CCCNC(=O)c1c(N)n(-c2cccc(OC)c2)c2nc3ccccc3nc12 | 31.6 µM [falling, single point] | 20 µM [falling, partial curve]
Cc1cc(C(=O)CSc2ncccn2)c(C)n1-c1cccc(F)c1 | 14.1 µM [rising, partial curve] | 10 µM [rising, partial curve]
Clc1ccc(C2=C3CCCCn4c(-c5ccccc5)c[n+](c43)C2)cc1 | 35.5 µM [falling, single point] | 35.5 µM [falling, single point]
O=C(Cn1cnc2c(cnn2-c2ccc(F)cc2)c1=O)NCc1ccco1 | 35.5 µM [rising, single point] | 
O=C(NCc1noc2ccccc12)Nc1ccc(F)cc1F | 0.000708 µM [falling, full curve, poor fit] | 
Cc1cc(C(=O)N2CCCC(CNS(=O)(=O)c3cccs3)C2)nn1C (stereo not given) | 0.0447 µM [falling, full curve, poor fit] | 
